Data from the supplement of paper PMC9744312.
Where a name gives a salt, the structure may show the parent alone. This is one part of the list. The data scatter; read single values as rough.

The molecules below were run on Peyronie's disease tunica albuginea primary fibroblasts (assay: cell viability (DRAQ5 nuclear stain) relative to TGF-beta1-only control; higher = more viable cells). Conditions: 10 µM; TGF-beta1 10 ng/mL; 72 h.
Molecule C[C@@H](Oc1cc(-c2cnn(C3CCNCC3)c2)cnc1N)c1c(Cl)ccc(F)c1Cl has a cell viability of 48.7%.
With COCCCOc1ccnc(C[S+]([O-])c2nc3ccccc3[nH]2)c1C (stereo not drawn) [Rebeprazole sodium] the cell viability was 83.4%.
Molecule COCCCOc1ccnc(C[S+]([O-])c2nc3ccccc3[nH]2)c1C (stereo not drawn) [Rabeprazole] has a cell viability of 75.7%.
Work on O=C(O)Cc1cc(I)c(Oc2ccc(O)c(I)c2)c(I)c1 [Tiratricol] yielded a cell viability of 101%.
In the case of Cc1cc(Nc2ncc(Cl)c(Nc3ccccc3S(=O)(=O)C(C)C)n2)c(OC(C)C)cc1C1CCNCC1 [Ceritinib (LDK378)], the cell viability is reported as 41.6%.
CCCCOC(=O)c1ccc(O)cc1 [Butylparaben] was tested, and the cell viability was 90.1%.
For COCCCOc1cc(C[C@@H](C[C@H](N)[C@@H](O)C[C@H](C(=O)NCC(C)(C)C(N)=O)C(C)C)C(C)C)ccc1OC [Aliskiren Hemifumarate], the cell viability was 91.9%.
CCCc1nc2c(C)cc(-c3nc4ccccc4n3C)cc2n1Cc1ccc(-c2ccccc2C(=O)O)cc1 [Telmisartan] was tested, and the cell viability was 92.5%.
Cc1ccc(C(=O)N(CCCN)[C@@H](c2nc3cc(Cl)ccc3c(=O)n2Cc2ccccc2)C(C)C)cc1 gave a cell viability of 48.1%.
Work on CC(=O)/N=c1/sc(S(N)(=O)=O)nn1C [Methazolamide] yielded a cell viability of 98.7%.
CCCCC[C@](C)(O)/C=C/[C@@H]1[C@@H](C/C=C\CCCC(=O)O)[C@@H](O)C[C@H]1O [Carboprost] gave a cell viability of 82.6%.
With CC1=CC(=O)c2ccccc2C1=O [Menadione] the cell viability was 83.7%.
COc1cc2ncnc(Nc3ccc(F)c(Cl)c3)c2cc1NC(=O)/C=C/CN1CCCCC1 showed a cell viability of 69%.
CCCCC1C(=O)N(c2ccccc2)N(c2ccccc2)C1=O [Phenylbutazone] gave a cell viability of 93.9%.
With O=C(Nc1ccccc1)OCC(CN1CCCCC1)OC(=O)Nc1ccccc1 (stereo not drawn) [Diperodon HCl] the cell viability was 94.6%.
CO[C@H]1O[C@H](COS(=O)(=O)O)[C@@H](O[C@@H]2O[C@@H](C(=O)O)[C@@H](O[C@H]3O[C@H](COS(=O)(=O)O)[C@@H](O[C@@H]4O[C@H](C(=O)O)[C@@H](O[C@H]5O[C@H](COS(=O)(=O)O)[C@@H](O)[C@H](O)[C@H]5NS(=O)(=O)O)[C@H](O)[C@H]4O)[C@H](OS(=O)(=O)O)[C@H]3NS(=O)(=O)O)[C@H](O)[C@H]2OS(=O)(=O)O)[C@H](O)[C@H]1NS(=O)(=O)O [Fondaparinux Sodium] showed a cell viability of 82.8%.
For C[C@@H]1O[C@@H](OC[C@H]2O[C@@H](Oc3c(-c4ccc(O)c(O)c4)oc4cc(O)cc(O)c4c3=O)[C@H](O)[C@@H](O)[C@@H]2O)[C@H](O)[C@H](O)[C@H]1O [Rutin], the cell viability was 91.8%.
Molecule CN1[C@@H]2CC[C@H]1C[C@@H](OC(c1ccccc1)c1ccccc1)C2 [Benztropine mesylate] has a cell viability of 89%.
With CO/N=C(\C(=O)N[C@@H]1C(=O)N2C(C(=O)O)=C(CSC(=O)c3ccco3)CS[C@H]12)c1csc(N)n1 [Ceftiofur] the cell viability was 94.7%.
Molecule CO/N=C(\C(=O)N[C@@H]1C(=O)N2C(C(=O)O)=C(CSC(=O)c3ccco3)CS[C@H]12)c1csc(N)n1 [Ceftiofur HCl] has a cell viability of 86.4%.
C/C(O)=C(\C#N)C(=O)Nc1ccc(C(F)(F)F)cc1 [Teriflunomide] gave a cell viability of 105%.
COc1nc(C)cnc1NS(=O)(=O)c1cccnc1-c1ccc(-c2nnco2)cc1 [Zibotentan (ZD4054)] showed a cell viability of 94.7%.
Molecule N[C@@H](CC(=O)N1CCn2c(nnc2C(F)(F)F)C1)Cc1cc(F)c(F)cc1F [Sitagliptin] has a cell viability of 95.9%.
In the case of N[C@@H](CC(=O)N1CCn2c(nnc2C(F)(F)F)C1)Cc1cc(F)c(F)cc1F [Sitagliptin phosphate monohydrate], the cell viability is reported as 89.6%.
In the case of Cc1ccc(C(C)C)c(O)c1 [Thymol], the cell viability is reported as 97.3%.
CC(=O)[O-].[K+] [Potassium acetate] was tested, and the cell viability was 84.7%.
Molecule C#CC1(O)CC[C@H]2[C@@H]3CCC4=CC(=O)CC[C@@H]4[C@H]3CC[C@@]21CC (stereo partly drawn) [Norgestrel] has a cell viability of 91.5%.
CC/C=C(\C(=O)N[C@@H]1C(=O)N2C(C(=O)OCOC(=O)C(C)(C)C)=C(COC(N)=O)CS[C@H]12)c1csc(N)n1 [Cefcapene Pivoxil Hydrochloride] showed a cell viability of 82.8%.
CC(=O)O[C@]1(C(C)=O)CC[C@H]2[C@@H]3C=C(C)C4=CC(=O)CC[C@]4(C)[C@H]3CC[C@@]21C [Megestrol Acetate] showed a cell viability of 99.4%.
With C=C1[C@H](CO)[C@@H](O)C[C@@H]1n1cnc2c(=O)[nH]c(N)nc21 [Entecavir Hydrate] the cell viability was 90.5%.
Work on C=C1[C@H](CO)[C@@H](O)C[C@@H]1n1cnc2c(=O)[nH]c(N)nc21 [Entecavir] yielded a cell viability of 93.2%.
Work on CN(C)C(=O)c1cc2cnc(Nc3ccc(N4CCNCC4)cn3)nc2n1C1CCCC1 [Ribociclib (LEE011)] yielded a cell viability of 68.3%.
With CC[C@@]1(O)C(=O)OCc2c1cc1n(c2=O)Cc2cc3c(CN(C)C)c(O)ccc3nc2-1 [Topotecan HCl] the cell viability was 51.8%.
Work on CCOC(=O)N[C@@H]1CC[C@@H]2[C@@H](C1)C[C@H]1C(=O)O[C@H](C)[C@H]1[C@H]2/C=C/c1ccc(-c2cccc(F)c2)cn1 [Vorapaxar] yielded a cell viability of 90.7%.
In the case of Cc1cc(Nc2cc(CN3CCOCC3)c3nc(C)c(Cc4ccc(Cl)cc4F)n3n2)n[nH]1, the cell viability is reported as 62.1%.
In the case of Nc1nnc(-c2cccc(Cl)c2Cl)c(N)n1 [Lamotrigine], the cell viability is reported as 88.2%.
Nc1nc(=O)[nH]cc1F [Flucytosine] was tested, and the cell viability was 96.1%.
Molecule COc1cc2c(cc1Cc1cccc(Cl)c1F)c(=O)c(C(=O)O)cn2[C@H](CO)C(C)C [Elvitegravir (GS-9137, JTK-303)] has a cell viability of 81%.
In the case of COc1ccc2cc3[n+](cc2c1OC)CCc1cc2c(cc1-3)OCO2 [Berberine chloride], the cell viability is reported as 98.5%.
With COc1ccc2cc3[n+](cc2c1OC)CCc1cc2c(cc1-3)OCO2 [Berberine Sulfate] the cell viability was 72.2%.
For CC(=O)NC[C@H]1CN(c2ccc(N3CCOCC3)c(F)c2)C(=O)O1 [Linezolid], the cell viability was 99.8%.
With Cc1nccn1CC1CCc2c(c3ccccc3n2C)C1=O (stereo not drawn) [Ondansetron Hydrochloride Dihydrate] the cell viability was 98%.
Molecule Cc1nccn1CC1CCc2c(c3ccccc3n2C)C1=O (stereo not drawn) [Ondansetron HCl] has a cell viability of 102%.
